# These are yes or no findings as the source states them, for the method shown. Some binding calls cover weakened binding; strength is not graded here.
# T1: human NPR3 (hNpr3) expressed on FreeStyle293 cells (human) (UniProt P17342)
# T1 sequence: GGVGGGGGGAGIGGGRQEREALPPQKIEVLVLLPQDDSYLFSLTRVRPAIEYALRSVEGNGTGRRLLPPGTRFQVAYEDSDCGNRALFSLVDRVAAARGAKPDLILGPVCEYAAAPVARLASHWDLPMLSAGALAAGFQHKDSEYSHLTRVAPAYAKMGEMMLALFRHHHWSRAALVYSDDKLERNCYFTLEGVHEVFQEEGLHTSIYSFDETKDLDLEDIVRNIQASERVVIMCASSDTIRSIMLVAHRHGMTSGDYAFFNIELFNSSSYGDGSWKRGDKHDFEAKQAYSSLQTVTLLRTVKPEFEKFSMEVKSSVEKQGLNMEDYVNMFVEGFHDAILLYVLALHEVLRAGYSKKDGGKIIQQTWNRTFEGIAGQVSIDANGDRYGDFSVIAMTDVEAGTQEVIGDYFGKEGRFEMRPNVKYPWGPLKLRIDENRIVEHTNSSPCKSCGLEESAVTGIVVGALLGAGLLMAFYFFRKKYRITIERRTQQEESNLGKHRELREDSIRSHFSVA
# Target: T1, human NPR3 (hNpr3) expressed on FreeStyle293 cells (human)
# Assay: competition with BK-/BC-mMusclin on hNpr3-transfected FreeStyle293 cells, single concentration; binding shown by displacement
binder,measurement,value
full-length mMusclin (unlabeled) (ligand) LASQEFGTASLQSPPTAREEKSATELSAKLLRLDDLVSLENDVFETKKKRSFSGFGSPLDRLSAGSVEHRGKQRKAVDHSKKRFGIPMDRIGRNRLSSSRG,binding,binds

# Source: patent publication US20110104705A1, “Musclin receptor and use thereof” (Takeda Pharmaceutical Company Limited, priority 2006, published 2011)
